Assay results reported in US20090298708.

By UniProt entry, the sequences of proteins in these tests, tags left out.
UniProt P19821, whole entry: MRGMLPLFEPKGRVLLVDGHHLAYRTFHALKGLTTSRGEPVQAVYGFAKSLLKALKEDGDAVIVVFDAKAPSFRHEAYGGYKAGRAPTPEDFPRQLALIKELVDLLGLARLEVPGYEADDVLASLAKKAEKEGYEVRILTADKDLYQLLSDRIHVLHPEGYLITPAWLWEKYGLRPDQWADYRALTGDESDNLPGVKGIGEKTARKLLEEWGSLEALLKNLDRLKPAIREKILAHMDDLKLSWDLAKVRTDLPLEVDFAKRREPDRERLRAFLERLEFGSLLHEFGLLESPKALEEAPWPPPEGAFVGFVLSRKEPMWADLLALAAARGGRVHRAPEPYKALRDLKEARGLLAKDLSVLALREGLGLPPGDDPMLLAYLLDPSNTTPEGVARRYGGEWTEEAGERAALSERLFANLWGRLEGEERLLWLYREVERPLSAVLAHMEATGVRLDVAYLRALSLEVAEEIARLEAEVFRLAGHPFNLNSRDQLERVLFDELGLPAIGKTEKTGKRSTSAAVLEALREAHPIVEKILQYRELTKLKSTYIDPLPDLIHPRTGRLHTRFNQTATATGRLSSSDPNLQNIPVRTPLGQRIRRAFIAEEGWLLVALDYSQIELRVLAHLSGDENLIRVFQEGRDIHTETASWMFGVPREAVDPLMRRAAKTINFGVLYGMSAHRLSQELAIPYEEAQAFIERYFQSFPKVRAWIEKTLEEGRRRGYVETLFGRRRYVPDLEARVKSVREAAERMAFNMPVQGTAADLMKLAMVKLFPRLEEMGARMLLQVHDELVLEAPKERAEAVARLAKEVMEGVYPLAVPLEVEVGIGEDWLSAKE

Tests used:
Test in all cases: activity assay
[1] = biological target: T1, Deep Vent (3'->5' exo-) DNA polymerase (DV) (UniProt Q51334); conditions: 55 C, purified recombinant protein, protein details: New England Biolabs, label: 5'-32P primer
T1 sequence (looked up, limits assumed): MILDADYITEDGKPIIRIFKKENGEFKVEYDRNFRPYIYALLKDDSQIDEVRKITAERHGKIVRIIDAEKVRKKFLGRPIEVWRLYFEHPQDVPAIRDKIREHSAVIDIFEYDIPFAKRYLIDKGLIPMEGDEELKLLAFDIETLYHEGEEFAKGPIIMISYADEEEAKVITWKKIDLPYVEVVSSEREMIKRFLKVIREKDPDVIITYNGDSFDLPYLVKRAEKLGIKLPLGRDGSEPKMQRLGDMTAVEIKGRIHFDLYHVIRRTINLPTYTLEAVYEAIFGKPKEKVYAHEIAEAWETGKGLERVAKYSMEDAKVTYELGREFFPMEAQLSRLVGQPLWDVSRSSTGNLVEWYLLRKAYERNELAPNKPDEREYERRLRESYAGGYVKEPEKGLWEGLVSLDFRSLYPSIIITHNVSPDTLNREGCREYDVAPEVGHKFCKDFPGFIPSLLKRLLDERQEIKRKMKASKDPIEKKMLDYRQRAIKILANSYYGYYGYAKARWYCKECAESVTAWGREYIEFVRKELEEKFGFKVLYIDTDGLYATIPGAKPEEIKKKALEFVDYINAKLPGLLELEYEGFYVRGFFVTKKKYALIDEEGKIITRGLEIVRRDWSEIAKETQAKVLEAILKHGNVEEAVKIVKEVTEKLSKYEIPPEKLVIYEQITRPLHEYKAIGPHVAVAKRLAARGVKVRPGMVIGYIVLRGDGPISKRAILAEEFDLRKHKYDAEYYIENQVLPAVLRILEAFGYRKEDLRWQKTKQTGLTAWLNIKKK

[2] = biological target: T2, Bst DNA polymerase large fragment (UniProt P52026); conditions: 2'F-ara (FANA) at 100% of test segment (TTACCTTT) of template; primer extension with dNTPs; full-length product; 55 C; purified recombinant protein; protein details: New England Biolabs; label: 5'-32P primer; synthetic backbone
T2 sequence (looked up, limits assumed): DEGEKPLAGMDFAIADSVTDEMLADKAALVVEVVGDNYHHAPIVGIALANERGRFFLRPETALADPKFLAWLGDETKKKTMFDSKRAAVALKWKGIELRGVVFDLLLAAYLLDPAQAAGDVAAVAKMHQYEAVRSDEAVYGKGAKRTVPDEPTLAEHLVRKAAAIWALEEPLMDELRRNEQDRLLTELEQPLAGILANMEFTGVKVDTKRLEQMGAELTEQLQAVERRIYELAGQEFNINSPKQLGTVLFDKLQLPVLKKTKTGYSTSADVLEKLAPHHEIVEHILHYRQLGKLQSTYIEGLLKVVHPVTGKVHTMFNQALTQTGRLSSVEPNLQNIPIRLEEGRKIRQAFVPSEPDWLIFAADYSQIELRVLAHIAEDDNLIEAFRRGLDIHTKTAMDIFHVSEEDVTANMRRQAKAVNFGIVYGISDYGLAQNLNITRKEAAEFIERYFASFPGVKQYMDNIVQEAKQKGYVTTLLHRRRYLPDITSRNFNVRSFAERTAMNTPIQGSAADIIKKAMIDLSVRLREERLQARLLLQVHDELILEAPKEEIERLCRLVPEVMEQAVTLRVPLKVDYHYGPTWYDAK

[3] = system: Phusion High-Fidelity DNA polymerase (Ph); conditions: 2'F-ara (FANA) at 100% of test segment (TTACCTTT) of template; primer extension with dNTPs; two dNTPs maximally; 55 C; purified recombinant protein; protein details: Finnzymes, distributed by New England Biolabs; label: 5'-32P primer; synthetic backbone
Taq DNA polymerase = Taq DNA polymerase (UniProt P19821); conditions: 2'F-ara (FANA) at 100% of test segment (TTACCTTT) of template; primer extension with dNTPs; 55 C; purified recombinant protein; protein details: New England Biolabs; label: 5'-32P primer; synthetic backbone
9°Nm DNA polymerase (9N) = biological target: T3, 9°Nm DNA polymerase (9N) (UniProt Q56366); conditions: apparent fidelity, 2'F-araCTP dropout; dCTP dropout 82%; 55 C; purified recombinant protein; protein details: New England Biolabs; label: 5'-32P primer
T3 sequence (looked up, limits assumed): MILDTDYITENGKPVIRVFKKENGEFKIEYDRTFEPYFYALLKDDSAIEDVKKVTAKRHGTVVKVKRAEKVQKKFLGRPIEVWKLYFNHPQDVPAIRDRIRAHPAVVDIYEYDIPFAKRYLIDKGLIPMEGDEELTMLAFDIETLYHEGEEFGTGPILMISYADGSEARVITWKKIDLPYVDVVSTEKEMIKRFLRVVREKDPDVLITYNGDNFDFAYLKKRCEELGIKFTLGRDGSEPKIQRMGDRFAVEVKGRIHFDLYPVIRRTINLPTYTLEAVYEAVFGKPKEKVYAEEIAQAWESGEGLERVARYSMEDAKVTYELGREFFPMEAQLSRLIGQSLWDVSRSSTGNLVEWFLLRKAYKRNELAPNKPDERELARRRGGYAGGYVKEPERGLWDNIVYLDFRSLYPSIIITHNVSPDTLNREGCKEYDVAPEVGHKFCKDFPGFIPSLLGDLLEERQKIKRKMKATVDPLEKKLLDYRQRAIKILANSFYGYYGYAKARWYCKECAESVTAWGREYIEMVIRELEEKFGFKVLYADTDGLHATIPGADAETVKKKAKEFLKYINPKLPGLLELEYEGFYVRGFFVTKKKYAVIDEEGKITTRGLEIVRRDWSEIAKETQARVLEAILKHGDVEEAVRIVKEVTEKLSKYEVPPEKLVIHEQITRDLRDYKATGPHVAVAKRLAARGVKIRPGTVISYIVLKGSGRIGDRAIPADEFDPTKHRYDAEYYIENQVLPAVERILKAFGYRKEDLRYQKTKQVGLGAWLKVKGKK

Sequence “TAATACGACTCACTATA / AAATCCCGAGAAGAGAGTATAGTGAGTCGTATTA [PF20/PF43 primer-template]” has an activity on this sequence ([1]; apparent fidelity, 2'F-araGTP dropout, dGTP dropout 62%) greater than 99%.
“TAATACGACTCACTATA / AGAGCCTGAGAAGAGAGTATAGTGAGTCGTATTA [PF20/PF41 primer-template]” showed an activity on this sequence ([1]; apparent fidelity, 2'F-araATP dropout, dATP dropout 1%) greater than 99%.
“TAATACGACTCACTATA / TTACCTTTCTCTTCTCCCTATAGTGAGTCGTATTA [PF20/PF31 primer-FANA template]” was tested, and the “activity on this sequence” value [2] was “active”, the “activity on this sequence” value [3] was “less active” and the “activity on this sequence” value (Taq DNA polymerase) was “less active”. For the same sequence, the “activity on this sequence” value ([1]; 2'F-ara (FANA) at 100% of test segment (TTACCTTT) of template, primer extension with dNTPs, up to 6 of 8 dNTPs, synthetic backbone) was “less active”.
In the case of “TAATACGACTCACTATA / TTTACCGCTCTTCTCCCTATAGTGAGTCCTATTA [PF20/PF23 primer-template]”, the activity on this sequence (9°Nm DNA polymerase (9N)) is reported as 43% and the activity on this sequence ([1]; apparent fidelity, 2'F-araCTP dropout, dCTP dropout 3%) is reported as 50%.
“TAATACGACTCACTATA / TTTGCCACTCTTCTCCCTATAGTGAGTCGTATTA [PF20/PF21 primer-template]” was tested, and the activity on this sequence ([1]; apparent fidelity, 2'F-araTTP dropout, dTTP dropout 19%) was 3%.

For part of these data: A weaker result is weaker than the reference pair of the same experiment. For part of these data: Tags and fusion partners may be left off the protein sequences shown. For part of these data: The exact form of at least one protein or probe is not confirmed.
